Binding data for 3 molecules are collected here from publication PMC10742985.

Amino acid sequences for entries named in this document (tags omitted).
UniProt Q9NR12: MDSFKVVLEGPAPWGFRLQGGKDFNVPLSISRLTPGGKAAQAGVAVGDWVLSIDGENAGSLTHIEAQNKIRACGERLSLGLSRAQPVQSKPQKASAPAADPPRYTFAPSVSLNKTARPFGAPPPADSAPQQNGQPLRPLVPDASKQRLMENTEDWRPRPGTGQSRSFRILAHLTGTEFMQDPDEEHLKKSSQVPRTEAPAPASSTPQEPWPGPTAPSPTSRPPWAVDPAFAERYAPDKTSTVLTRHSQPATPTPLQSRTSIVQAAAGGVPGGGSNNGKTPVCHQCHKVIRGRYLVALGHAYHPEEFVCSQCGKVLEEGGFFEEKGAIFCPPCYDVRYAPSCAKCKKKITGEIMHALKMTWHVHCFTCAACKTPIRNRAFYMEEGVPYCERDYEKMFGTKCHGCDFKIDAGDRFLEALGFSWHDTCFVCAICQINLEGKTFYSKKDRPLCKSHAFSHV
UniProt Q00987: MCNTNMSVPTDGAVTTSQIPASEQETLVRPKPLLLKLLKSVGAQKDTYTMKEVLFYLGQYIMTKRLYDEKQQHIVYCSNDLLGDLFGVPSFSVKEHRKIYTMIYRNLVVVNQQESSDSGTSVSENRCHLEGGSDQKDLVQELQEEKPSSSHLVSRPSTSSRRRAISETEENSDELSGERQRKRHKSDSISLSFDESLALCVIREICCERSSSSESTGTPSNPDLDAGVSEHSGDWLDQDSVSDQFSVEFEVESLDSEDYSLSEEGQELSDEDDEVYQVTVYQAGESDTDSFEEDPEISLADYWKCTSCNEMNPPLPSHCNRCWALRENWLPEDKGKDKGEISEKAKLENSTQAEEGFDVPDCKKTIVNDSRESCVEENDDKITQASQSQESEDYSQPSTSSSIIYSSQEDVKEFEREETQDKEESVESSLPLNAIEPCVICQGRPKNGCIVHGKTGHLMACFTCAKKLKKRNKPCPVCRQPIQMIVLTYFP

These are yes or no findings as the source states them, for the method shown. Binding seen in cells or lysates may run through a third protein. Some entries that bind do so weakly or less than the wild type.

Assay [1] addresses T1, Vitamin D Receptor (VDR) (human (endogenous in papillary thyroid cancer tissue)) (UniProt P11473).
T1 sequence: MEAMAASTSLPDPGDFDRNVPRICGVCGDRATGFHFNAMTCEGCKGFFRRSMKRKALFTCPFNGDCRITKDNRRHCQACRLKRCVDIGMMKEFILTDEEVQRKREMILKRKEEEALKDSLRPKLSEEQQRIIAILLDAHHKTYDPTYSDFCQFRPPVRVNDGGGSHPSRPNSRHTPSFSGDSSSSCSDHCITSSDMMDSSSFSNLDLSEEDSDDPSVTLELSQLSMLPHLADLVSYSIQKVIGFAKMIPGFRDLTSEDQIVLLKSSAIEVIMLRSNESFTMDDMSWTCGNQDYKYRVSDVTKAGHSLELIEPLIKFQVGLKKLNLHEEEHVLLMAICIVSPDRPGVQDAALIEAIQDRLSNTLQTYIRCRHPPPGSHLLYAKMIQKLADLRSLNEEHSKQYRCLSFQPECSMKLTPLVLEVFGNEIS
The assay is described as follows: co-IP; reverse immunoprecipitation with VDR antibody (rat, Invitrogen) as bait from precleared RIPA lysates of fresh papillary thyroid cancer tissue, Protein A/G magnetic beads, 4 °C; supernatant and beads blotted.

The target in assay [2] is Enigma protein, encoded by the PDLIM7 gene (human (endogenous in papillary thyroid cancer tissue)) (UniProt Q9NR12). The assay is described as follows: co-IP; immunoprecipitation with Enigma/PDLIM7 antibody (rabbit, Proteintech) as bait from precleared RIPA lysates of fresh papillary thyroid cancer tissue (patients #1-5), Protein A/G magnetic beads, 4 °C; supernatant and beads blotted.

In the case of “Enigma protein, encoded by the PDLIM7 gene (from UniProt Q9NR12 1-457)”, in assay [1], the binding result is given as “binds”.
On to “Murine Double Minute 2 (MDM2) (from UniProt Q00987 1-491)”, for which, in assay [2], the binding entry is “binds”.

B1: vitamin D binding protein (DBP) (protein, UniProt P02774 17-474)
chain: LERGRDYEKNKVCKEFSHLGKEDFTSLSLVLYSRKFPSGTFEQVSQLVKEVVSLTEACCAEGADPDCYDTRTSALSAKSCESNSPFPVHPGTAECCTKEGLERKLCMAALKHQPQEFPTYVEPTNDEICEAFRKDPKEYANQFMWEYSTNYGQAPLSLLVSYTKSYLSMVGSCCTSASPTVCFLKERLQLKHLSLLTTLSNRVCSQYAAYGEKKSRLSNLIKLAQKVPTADLEDVLPLAEDITNILSKCCESASEDCMAKELPEHTVKLCDNLSTKNSKFEDCCQEKTAMDVFVCTYFMPAAQLPELPDVELPTNKDVCDPGNTKVMDKYTFELSRRTHLPEVFLSKVLEPTLKSLGECCDVEDSTTCFNAKGPLLKKELSSFIDKGQELCADYSENTFTEYKKKLAERLKAKLPDATPTELAKLVNKHSDFASNCCSINSPPLYCDSEIDAELKNIL
Consider B1, for which the binding result in assay [1] was “binds”.
